Here are results for one substance from patent publication US9345738B2, “Methods for the prevention or treatment of no-reflow following ischemia/reperfusion injury” (Stealth BioTherapeutics Corp., priority 2010, dated 2016).

The data set deals with rabbit heart, ischemic and non-ischemic region. Put plainly: Regional myocardial blood flow (RMBF), radioactive microsphere technique, rabbit model of AMI. The format is in vivo, New Zealand White rabbit. To be noted: at 25 min of CAO.
Where [1] appears, read: Group 1 (infusion from 10′ after CAO), 3 hearts with ischemic flow >0.20 excluded.
[2] abbreviates: Group 2 (infusion from 20′ after CAO), 3 hearts with ischemic flow >0.20 excluded.
Setting [3] is: Group 3 (infusion from 29′ after CAO, i.e. after the measurement), 3 hearts excluded.

Turning to D-Arg-2′,6′-Dmt-Lys-Phe-NH2, the “RMBF, ischemic region” value is 0.02 ± 0.01 mL/min/g under setting [1], 0.03 ± 0.01 mL/min/g under setting [2] and 0.05 ± 0.03 mL/min/g under setting [3]. Also, the “RMBF, non-ischemic region” value by setting is: under setting [1], 2.13 ± 0.12 mL/min/g; under setting [2], 2.63 ± 0.29 mL/min/g; under setting [3], 2.43 ± 0.19 mL/min/g.
